Test results reported in patent US4847254A, “CNS affecting 5-oxy-3-aminomethyl-dihydro-benzofurans and benzothiophenes” (H. Lundbeck A/S, priority 1987, dated 1989).
At least one structure is not confirmed: it was looked up by name or label, or the drawing left a doubt.

System: DA-receptor
Experiment: Contralateral circling in rats with unilateral 6-hydroxy-DA (6-OHDA) lesions
Format: in vivo, rat (Wistar)
Settings: 6-OHDA-lesioned rats, activity in words, compared with Lu 23-130
Description: Furthermore, the potency of the drug to induce contralateral circling behaviour in 6-hydroxy-DA-lesioned rats was determined. The specificity of this receptor resembles that of the […] DA receptors mediating motility inhibition.
The experiments were made according to published methods, using rats of the Wistar strain.
Therefore, also the ability of a test compound to induce contralateral circling in rats with unilateral 6-hydroxy-DA lesions was evaluated (loc cit.).

Compound: CCCN(CCC)CC1COc2ccc(OCOC(=O)C(C)(C)C)cc21 (stereo not shown) [Lu 24-104, 5-Pivaloyloxymethyloxy-2,3-dihydro-N,N-dipropyl-3-benzofuranmethylamine]
- 6-OHDA Contr. Circle. rats (sc) Activity: as Lu 23-130
